Record: PubChem BioAssay AID1259254 (NCATS, 2017)
Screen: 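Gene knock-downs that lead to re-replication, shown by excess G2 DNA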 (primary screen). System: human HCT116 colorectal cancer cells. Reagent: single siRNA against human genes. Time to read-out: 3 days. Measured: 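Nuclei stained with Hoechst and imaged; cell-cycle phase assigned by DNA content; G2 share scaled per plate, non-targeting siRNA 0%, GMNN siRNA 100%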. Scale: G2 robust z-score and G2 cells, % of GMNN control: higher = more G2 cells, more excess DNA replication. Active means: 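Active siRNAs have a G2 robust z of 5 or more median absolute deviations over the median, which in these data means about 38% or higher of GMNN control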.
This is an unselected part of about 59,000 deposited reagents. About 1,550 of all reagents (2.6%) count as active. 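G2 share is only a proxy for re-replication; each gene was hit by three separate siRNAs, and active genes were retested.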 Reagents against one gene are numbered here. Not all columns of the deposit are shown. No sequences are given here. The record does not give: the amount of reagent.

| target | reagent no. | G2 robust z-score | G2 cells, % of GMNN control | outcome |
| --- | --- | --- | --- | --- |
| SLC39A13 | 1 | -0.612 | -1.34 | inactive |
| SLC39A13 | 2 | 0.234 | 4.62 | inactive |
| SLC39A13 | 3 | 0.661 | 7.62 | inactive |
| TAAR8 | 1 | 3.27 | 26 | inactive |
| TAAR8 | 2 | 0.138 | 3.94 | inactive |
| TAAR8 | 3 | 0.0105 | 3.04 | inactive |
| ARHGAP39 | 1 | -0.0848 | 2.37 | inactive |
| ARHGAP39 | 2 | 1.21 | 11.5 | inactive |
| ARHGAP39 | 3 | -0.0855 | 2.37 | inactive |
| ZFAT | 1 | -1.31 | -6.24 | inactive |
| ZFAT | 2 | 0.81 | 8.67 | inactive |
| ZFAT | 3 | 0.208 | 4.43 | inactive |
| TLE5 | 1 | -0.764 | -2.41 | inactive |
| TLE5 | 2 | -0.418 | 0.0285 | inactive |
| TLE5 | 3 | -0.742 | -2.25 | inactive |
| RAB33B | 1 | -0.176 | 1.73 | inactive |
| RAB33B | 2 | 0.466 | 6.24 | inactive |
| RAB33B | 3 | -0.0596 | 2.55 | inactive |
| FBXL9P | 1 | 1.51 | 13.6 | inactive |
| FBXL9P | 2 | 0.58 | 7.05 | inactive |
| FBXL9P | 3 | 0.202 | 4.39 | inactive |
| MEP1A | 1 | -0.149 | 1.92 | inactive |
| MEP1A | 2 | 0.0573 | 3.37 | inactive |
| MEP1A | 3 | -0.974 | -3.89 | inactive |
| HLCS | 1 | 1.86 | 16 | inactive |
| HLCS | 2 | 16.8 | 121 | active |
| HLCS | 3 | 1.2 | 11.4 | inactive |
| SLC9A1 | 1 | 1.45 | 13.2 | inactive |
| SLC9A1 | 2 | 0.215 | 4.48 | inactive |
| SLC9A1 | 3 | 0.163 | 4.11 | inactive |
| DOCK4 | 1 | -0.0106 | 2.89 | inactive |
| DOCK4 | 2 | -0.376 | 0.319 | inactive |
| DOCK4 | 3 | -0.599 | -1.24 | inactive |
| NXNL1 | 1 | 0.902 | 9.32 | inactive |
| NXNL1 | 2 | 0.474 | 6.3 | inactive |
| NXNL1 | 3 | 3.49 | 27.5 | inactive |

Records listed so far whose target name starts with H or h (3):
| target | reagent no. | G2 robust z-score | G2 cells, % of GMNN control | outcome |
| --- | --- | --- | --- | --- |
| HLCS | 1 | 1.86 | 16 | inactive |
| HLCS | 2 | 16.8 | 121 | active |
| HLCS | 3 | 1.2 | 11.4 | inactive |

The results go on:
| target | reagent no. | G2 robust z-score | G2 cells, % of GMNN control | outcome |
| --- | --- | --- | --- | --- |
| EFNB1 | 1 | 5.13 | 39.1 | active |
| EFNB1 | 2 | -0.793 | -2.61 | inactive |
| EFNB1 | 3 | -0.361 | 0.426 | inactive |
| CELF6 | 1 | 8.33 | 61.5 | active |
| CELF6 | 2 | -0.954 | -3.74 | inactive |
| CELF6 | 3 | -0.983 | -3.95 | inactive |
| FLRT2 | 1 | -0.0383 | 2.7 | inactive |
| FLRT2 | 2 | -0.651 | -1.61 | inactive |
| FLRT2 | 3 | -0.808 | -2.72 | inactive |
| QRFPR | 1 | -0.749 | -2.3 | inactive |
| QRFPR | 2 | 0.159 | 4.09 | inactive |
| QRFPR | 3 | 0.244 | 4.68 | inactive |
| LAMC3 | 1 | -0.632 | -1.48 | inactive |
| LAMC3 | 2 | 1.56 | 14 | inactive |
| LAMC3 | 3 | -0.775 | -2.48 | inactive |
| EIF4ENIF1 | 1 | -0.794 | -2.62 | inactive |
| EIF4ENIF1 | 2 | -0.95 | -3.71 | inactive |
| EIF4ENIF1 | 3 | -0.881 | -3.23 | inactive |
| GABRG2 | 1 | 1.66 | 14.6 | inactive |
| GABRG2 | 2 | -0.223 | 1.4 | inactive |
| GABRG2 | 3 | -0.435 | -0.0917 | inactive |
| CHMP1B | 1 | -0.597 | -1.23 | inactive |
| CHMP1B | 2 | 0.816 | 8.71 | inactive |
| CHMP1B | 3 | -0.519 | -0.687 | inactive |
| GPR149 | 1 | 0.381 | 5.65 | inactive |
| GPR149 | 2 | 0.938 | 9.57 | inactive |
| GPR149 | 3 | 0.373 | 5.59 | inactive |
| TMEM207 | 1 | -1.07 | -4.56 | inactive |
| TMEM207 | 2 | -0.843 | -2.96 | inactive |
| TMEM207 | 3 | -0.409 | 0.0871 | inactive |
| LY6D | 1 | 0.258 | 4.78 | inactive |
| LY6D | 2 | -0.526 | -0.736 | inactive |
| LY6D | 3 | 1.38 | 12.7 | inactive |
